{"source": "PubChem BioAssay AID1918954", "about": "(Molecular Pharmacology Branch, DTP, NCI, 2023)", "test_system": "MDA-MB-468 complex spheroids with HUVEC/MSC, viability", "assay": "Anticancer human tumor MDA-MB-468 cell line growth inhibition;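 also: spheroids exposed to agents for seven days; 100% = DMSO vehicle control viability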", "conditions": "compound 10 µM; active compounds read low", "source_text": "Multicellular complex tumor spheroid response to LSD1 Inhibitor Iadademstat in combination with a variety of drugs and investigational agents in selected tumor cell lines\nThe current study was undertaken to assess response to LSD1 inhibitors in combination with standard-of-care drugs and investigational agents in solid tumor complex spheroid models as well as in the K-562 leukemia. Complex spheroids include a stromal component modeled by human endothelial cells (HUVEC) and fibroblasts modeled by human mesenchymal stem cells (MSCs). The concentration ranges selected for each drug and investigational agent were based upon clinically achievable concentrations if the clinical Cmax of the agent was known.\nCompounds. The drugs and investigational agents used in this study are listed on Table 1. All of the agents used, including staurosporine (NSC755774) and gemcitabine (NSC613327), were obtained from the Developmental Therapeutics Program, NCI. FDA-approved anticancer drugs are available from the NCI at http://dtp.nci.nih.gov/branches/dscb/oncology_drugset_explanation.html. Drugs and investigational agents were >95% pure by proton nuclear magnetic resonance (NMR) and liquid chromatography/mass spectrometry (LC/MS). […] If the clinical Cmax for an agent had not been determined, the highest concentration tested was 10 microM. […]", "note": "Several values for one entry are separate records, joined by “and”; a condition that tells them apart may be missing. Equal values may be shown once. This continues a long series; more values of the same kind are listed elsewhere."}
{"smiles": "NC1CCC(NC2CC2c2ccccc2)CC1", "note": "(stereo unspecified)", "values": [{"measurement": "viability, T/C", "value": "87.9% and 72.4%"}]}
